The record followed here is PMC7515921, “MFSD7C switches mitochondrial ATP synthesis to thermogenesis in response to heme” (Nature Communications, 2020).

Protein sequences, listed by entry. Tags and fused reporters are not part of them. Residues count along the entry.
UniProt P10852: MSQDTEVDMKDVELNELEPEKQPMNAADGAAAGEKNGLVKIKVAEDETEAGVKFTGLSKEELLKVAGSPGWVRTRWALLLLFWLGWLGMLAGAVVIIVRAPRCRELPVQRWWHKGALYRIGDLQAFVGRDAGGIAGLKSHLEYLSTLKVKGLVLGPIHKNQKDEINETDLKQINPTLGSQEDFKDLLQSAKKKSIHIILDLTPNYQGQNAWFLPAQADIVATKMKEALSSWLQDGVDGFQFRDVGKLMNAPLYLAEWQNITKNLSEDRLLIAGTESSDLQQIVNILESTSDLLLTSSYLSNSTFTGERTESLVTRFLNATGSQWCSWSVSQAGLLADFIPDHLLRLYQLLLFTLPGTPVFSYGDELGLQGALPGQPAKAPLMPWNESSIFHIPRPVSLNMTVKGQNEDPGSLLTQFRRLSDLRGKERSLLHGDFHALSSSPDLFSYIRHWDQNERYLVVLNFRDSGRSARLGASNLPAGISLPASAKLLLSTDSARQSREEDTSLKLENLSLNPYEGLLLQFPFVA
UniProt Q9DCX2: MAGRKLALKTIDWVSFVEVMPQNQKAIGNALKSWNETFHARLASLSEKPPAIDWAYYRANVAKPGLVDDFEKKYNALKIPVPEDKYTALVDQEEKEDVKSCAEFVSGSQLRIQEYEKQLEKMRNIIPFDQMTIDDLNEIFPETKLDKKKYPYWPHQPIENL
UniProt P20491, residues 19-86: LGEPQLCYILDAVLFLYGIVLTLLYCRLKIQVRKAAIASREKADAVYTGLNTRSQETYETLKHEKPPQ
UniProt Q9D880, residues 22-353: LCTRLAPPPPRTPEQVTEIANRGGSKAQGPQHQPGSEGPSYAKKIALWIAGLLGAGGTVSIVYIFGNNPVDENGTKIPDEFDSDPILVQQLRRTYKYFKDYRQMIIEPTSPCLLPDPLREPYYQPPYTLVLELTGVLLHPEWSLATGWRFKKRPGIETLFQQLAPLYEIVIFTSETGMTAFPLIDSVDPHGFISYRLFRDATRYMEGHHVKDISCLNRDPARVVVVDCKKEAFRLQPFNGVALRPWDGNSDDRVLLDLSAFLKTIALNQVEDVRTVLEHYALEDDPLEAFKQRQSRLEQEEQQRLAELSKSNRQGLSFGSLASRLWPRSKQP
UniProt Q91YL2: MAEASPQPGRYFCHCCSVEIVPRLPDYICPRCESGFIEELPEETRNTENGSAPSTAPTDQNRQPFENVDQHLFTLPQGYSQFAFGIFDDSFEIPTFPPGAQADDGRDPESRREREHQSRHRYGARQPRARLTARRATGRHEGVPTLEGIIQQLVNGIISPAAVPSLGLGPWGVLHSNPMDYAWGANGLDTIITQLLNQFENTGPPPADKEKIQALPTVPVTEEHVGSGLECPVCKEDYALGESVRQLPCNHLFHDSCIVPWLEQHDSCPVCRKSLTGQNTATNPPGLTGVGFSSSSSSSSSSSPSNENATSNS
UniProt Q3V3R1, residues 32-977: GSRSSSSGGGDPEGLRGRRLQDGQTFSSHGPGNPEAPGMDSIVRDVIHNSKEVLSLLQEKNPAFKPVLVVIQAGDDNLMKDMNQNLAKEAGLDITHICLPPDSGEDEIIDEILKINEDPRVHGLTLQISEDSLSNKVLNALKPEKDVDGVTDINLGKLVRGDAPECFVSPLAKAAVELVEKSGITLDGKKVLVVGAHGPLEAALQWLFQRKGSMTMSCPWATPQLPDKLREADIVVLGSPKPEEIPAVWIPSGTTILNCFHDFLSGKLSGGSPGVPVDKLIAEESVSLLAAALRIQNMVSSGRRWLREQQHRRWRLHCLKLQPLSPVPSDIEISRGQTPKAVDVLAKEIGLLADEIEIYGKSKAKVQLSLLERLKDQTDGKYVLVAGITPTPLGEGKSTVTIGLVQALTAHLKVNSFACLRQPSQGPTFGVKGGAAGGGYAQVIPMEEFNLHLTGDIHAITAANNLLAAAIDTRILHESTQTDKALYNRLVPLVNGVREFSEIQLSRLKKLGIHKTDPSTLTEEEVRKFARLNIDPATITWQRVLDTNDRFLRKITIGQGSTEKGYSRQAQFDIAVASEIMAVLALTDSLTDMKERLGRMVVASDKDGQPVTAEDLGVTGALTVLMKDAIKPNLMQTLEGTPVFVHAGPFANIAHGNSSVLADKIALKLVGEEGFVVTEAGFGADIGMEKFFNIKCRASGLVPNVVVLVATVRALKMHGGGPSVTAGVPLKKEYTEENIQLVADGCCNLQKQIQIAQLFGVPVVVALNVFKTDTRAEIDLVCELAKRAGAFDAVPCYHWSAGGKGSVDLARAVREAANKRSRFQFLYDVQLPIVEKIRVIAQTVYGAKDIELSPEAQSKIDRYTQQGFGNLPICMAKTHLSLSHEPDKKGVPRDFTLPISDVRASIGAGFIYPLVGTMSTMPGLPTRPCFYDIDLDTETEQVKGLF
UniProt Q9R049: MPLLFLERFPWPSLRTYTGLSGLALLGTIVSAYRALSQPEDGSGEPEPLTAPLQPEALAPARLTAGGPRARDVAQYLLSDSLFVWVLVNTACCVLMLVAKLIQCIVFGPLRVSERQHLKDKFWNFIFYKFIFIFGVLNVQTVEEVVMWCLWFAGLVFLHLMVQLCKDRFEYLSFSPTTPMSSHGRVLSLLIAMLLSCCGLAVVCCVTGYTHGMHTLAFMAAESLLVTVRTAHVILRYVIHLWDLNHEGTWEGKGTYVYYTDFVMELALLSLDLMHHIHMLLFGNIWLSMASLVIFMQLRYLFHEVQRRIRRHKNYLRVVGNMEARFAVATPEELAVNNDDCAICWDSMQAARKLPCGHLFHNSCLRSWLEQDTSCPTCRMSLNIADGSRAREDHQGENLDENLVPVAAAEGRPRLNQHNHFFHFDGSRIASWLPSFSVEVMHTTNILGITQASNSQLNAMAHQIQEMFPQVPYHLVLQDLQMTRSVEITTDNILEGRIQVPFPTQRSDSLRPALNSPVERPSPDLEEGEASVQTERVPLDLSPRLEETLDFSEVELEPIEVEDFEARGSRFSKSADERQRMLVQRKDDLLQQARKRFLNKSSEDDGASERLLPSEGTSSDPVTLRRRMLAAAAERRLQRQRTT
UniProt O35387: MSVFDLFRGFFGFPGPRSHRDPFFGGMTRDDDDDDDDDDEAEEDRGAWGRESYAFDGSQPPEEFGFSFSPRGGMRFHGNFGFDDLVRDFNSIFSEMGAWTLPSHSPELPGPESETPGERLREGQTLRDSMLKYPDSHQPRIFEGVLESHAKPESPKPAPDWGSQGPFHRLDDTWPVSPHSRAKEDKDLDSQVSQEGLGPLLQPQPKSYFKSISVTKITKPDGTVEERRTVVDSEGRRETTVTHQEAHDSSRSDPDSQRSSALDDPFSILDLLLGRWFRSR
UniProt P11835, residues 24-771: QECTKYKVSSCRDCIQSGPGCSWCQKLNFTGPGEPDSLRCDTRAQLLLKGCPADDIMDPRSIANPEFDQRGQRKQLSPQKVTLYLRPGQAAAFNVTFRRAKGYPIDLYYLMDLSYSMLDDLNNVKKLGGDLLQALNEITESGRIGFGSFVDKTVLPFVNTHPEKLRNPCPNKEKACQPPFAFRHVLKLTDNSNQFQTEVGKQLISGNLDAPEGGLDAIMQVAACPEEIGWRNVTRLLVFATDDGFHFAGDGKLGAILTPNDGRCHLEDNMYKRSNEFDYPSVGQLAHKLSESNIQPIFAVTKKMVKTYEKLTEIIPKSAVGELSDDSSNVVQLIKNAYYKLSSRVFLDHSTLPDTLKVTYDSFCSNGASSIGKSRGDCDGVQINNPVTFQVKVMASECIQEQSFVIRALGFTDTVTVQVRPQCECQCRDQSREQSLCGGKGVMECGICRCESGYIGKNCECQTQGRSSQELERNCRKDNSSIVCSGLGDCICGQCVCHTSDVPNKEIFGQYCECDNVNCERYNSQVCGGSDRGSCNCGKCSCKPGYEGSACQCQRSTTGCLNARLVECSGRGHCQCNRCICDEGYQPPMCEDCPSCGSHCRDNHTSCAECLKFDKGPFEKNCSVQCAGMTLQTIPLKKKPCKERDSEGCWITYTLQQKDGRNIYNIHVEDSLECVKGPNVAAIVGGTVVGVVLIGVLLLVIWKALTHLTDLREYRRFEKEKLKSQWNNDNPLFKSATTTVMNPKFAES
UniProt P50637: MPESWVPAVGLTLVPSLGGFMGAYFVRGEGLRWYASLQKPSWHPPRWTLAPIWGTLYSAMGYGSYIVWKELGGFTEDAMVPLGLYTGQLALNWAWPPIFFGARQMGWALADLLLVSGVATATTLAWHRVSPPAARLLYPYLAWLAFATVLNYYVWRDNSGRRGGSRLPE
UniProt P29351: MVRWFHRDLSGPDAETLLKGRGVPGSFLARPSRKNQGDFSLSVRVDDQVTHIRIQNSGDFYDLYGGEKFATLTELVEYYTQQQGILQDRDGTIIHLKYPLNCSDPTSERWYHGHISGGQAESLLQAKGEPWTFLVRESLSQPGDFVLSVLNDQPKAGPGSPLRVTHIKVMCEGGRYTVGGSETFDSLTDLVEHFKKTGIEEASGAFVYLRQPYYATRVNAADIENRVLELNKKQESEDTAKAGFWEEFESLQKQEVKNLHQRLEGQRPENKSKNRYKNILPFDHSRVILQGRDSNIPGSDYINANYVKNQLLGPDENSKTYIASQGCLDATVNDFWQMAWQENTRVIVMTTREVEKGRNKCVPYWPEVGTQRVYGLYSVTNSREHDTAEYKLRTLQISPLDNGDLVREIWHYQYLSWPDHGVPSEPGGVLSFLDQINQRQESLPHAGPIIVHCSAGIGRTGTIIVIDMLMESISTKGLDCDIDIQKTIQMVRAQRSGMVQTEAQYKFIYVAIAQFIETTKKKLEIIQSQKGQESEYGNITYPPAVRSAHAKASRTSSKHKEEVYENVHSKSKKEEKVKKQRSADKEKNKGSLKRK
UniProt Q8JZQ2, residues 67-802: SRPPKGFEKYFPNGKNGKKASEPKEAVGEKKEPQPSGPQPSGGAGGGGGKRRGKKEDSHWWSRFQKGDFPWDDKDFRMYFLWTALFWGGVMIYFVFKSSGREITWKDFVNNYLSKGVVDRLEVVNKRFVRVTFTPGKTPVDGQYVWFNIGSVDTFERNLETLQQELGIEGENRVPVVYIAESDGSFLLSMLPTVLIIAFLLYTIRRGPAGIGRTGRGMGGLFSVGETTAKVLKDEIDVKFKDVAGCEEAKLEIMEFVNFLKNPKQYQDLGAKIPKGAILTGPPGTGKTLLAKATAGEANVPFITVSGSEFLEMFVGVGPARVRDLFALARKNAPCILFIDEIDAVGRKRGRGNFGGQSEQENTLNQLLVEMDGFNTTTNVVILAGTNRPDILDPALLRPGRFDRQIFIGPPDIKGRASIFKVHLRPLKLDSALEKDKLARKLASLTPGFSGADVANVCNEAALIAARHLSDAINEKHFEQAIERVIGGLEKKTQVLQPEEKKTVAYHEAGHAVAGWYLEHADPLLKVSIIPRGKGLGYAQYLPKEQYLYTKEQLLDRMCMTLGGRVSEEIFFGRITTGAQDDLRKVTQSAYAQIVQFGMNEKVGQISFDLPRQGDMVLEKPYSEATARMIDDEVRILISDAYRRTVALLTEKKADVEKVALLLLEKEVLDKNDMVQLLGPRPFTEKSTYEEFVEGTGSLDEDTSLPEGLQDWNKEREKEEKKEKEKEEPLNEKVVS

This assay deals with T1, MFSD7C tagged with both Myc and FLAG epitopes (murine) (mouse) (UniProt Q91X85).
T1 sequence: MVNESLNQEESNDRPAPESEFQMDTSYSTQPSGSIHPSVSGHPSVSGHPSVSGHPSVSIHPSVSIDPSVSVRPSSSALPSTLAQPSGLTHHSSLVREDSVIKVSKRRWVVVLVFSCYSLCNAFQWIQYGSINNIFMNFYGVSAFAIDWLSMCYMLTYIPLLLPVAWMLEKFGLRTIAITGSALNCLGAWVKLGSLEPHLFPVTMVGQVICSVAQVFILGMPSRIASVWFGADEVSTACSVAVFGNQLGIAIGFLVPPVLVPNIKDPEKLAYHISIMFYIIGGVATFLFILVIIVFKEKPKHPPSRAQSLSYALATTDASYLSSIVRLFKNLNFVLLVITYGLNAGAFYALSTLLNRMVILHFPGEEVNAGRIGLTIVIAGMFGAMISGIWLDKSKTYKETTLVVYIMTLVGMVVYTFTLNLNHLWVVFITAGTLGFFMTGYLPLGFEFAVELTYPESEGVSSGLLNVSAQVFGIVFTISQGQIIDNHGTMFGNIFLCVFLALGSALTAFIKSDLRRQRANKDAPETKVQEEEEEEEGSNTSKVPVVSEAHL
In words: affinity purification with mass spectrometry; lysate of MH-S cells expressing MFSD7C-FLAG-Myc (control: GFP alone); 20 mM Tris-HCl pH 7.4, 150 mM NaCl, 0.1% NP-40, 10% glycerol; anti-FLAG beads, 3x FLAG peptide elution, then anti-Myc beads; LC-MS/MS.

Results are given in words; binding and its absence hold for the method and conditions named. Binding seen in cells or lysates may run through a third protein. Here binding means that the protein was enriched with, or labelled near, the bait; the list need not be complete. Sequences can lack the tags named with a protein.

Turning to Dnaja3 (mouse (endogenous in MH-S)), the binding result is on record as “binds”. For “Atp2a2 (SERCA2b) (endogenous) (from UniProt O55143-1 1-1044)” the value was “binds”; for Slc3a2 (from UniProt P10852 1-526), “binds”.

As to Dnaja1 (from UniProt P63037 1-397), the binding result is “binds”.

In the case of “ATP5h (endogenous) (from UniProt Q9DCX2 1-161)”, the binding result was “binds”. Then Slc43a2 (from UniProt Q8CGA3 1-568), with “binds”; and Fcer1g (from UniProt P20491 19-86), with “binds”. For TIM50 (from UniProt Q9D880 22-353) the value was “binds”; for Rnf126 (from UniProt Q91YL2 1-313), “binds”. For Sqrdl (mouse (endogenous in MH-S)) the value was “binds”. On to Mthfd1l (from UniProt Q3V3R1 32-977), for which the binding entry was “binds”.

Turning to Amfr (from UniProt Q9R049 1-643), the binding entry is listed as “binds”. For Hax1 (from UniProt O35387 1-280) the value was “binds”; for Itgb2 (from UniProt P11835 24-771), “binds”. For Tspo (from UniProt P50637 1-169) the value was “binds”; for Ptpn6 (from UniProt P29351 1-595), “binds”.

Turning to Afg3l2 (from UniProt Q8JZQ2 67-802), the binding result is given as “binds”.

B1: Elovl1 (protein, UniProt Q9JLJ5 1-279)
chain: MEAVVNLYHELMKHADPRIQSYPLMGSPLLITSILLTYVYFILSLGPRIMANRKPFQLRGFMIVYNFSLVILSLYIVYEFLMSGWLSTYTWRCDPIDFSNSPEALRMVRVAWLFMLSKVIELMDTVIFILRKKDGQVTFLHVFHHSVLPWSWWWGIKIAPGGMGSFHAMINSSVHVVMYLYYGLSALGPVAQPYLWWKKHMTAIQLIQFVLVSLHISQYYFMPSCNYQYPIIIHLIWMYGTIFFILFSNFWYHSYTKGKRLPRAVQQNGAPATTKVKAN
Regarding B1, the binding result was “binds”.

B2: Acsl5 (protein, UniProt Q8JZR0 1-683)
chain: MLFIFNFLFSPLPTPALICLLTFGTAIFLWLINRPQPVLPLIDLDNQSVGIEGGARRGAFQKNNDLILYYFSDAKTLYENFQRGLAVSDNGPCLGYRKPNQPYKWISYKQVSDRAEYLGSCLLHKGYKSSQDQFVGIFAQNRPEWVISELACYTYSMVAVPLYDTLGTEAIIFVINRADIPVVICDTPQKATMLVENVEKGLTPGLKTIILMDPFDDDLMKRGEKCGVEMLSLHDAENIGKENFKKPVPPKPEDLSVICFTSGTTGDPKGAMLTHENVVSNMAAFLKFLEPIFQPTSDDVTISYLPLAHMFERLVQGILFSCGGKIGFFQGDIRLLPDDMKALKPTVFPTVPRLLNRVYDKVQNEAKTPLKKFLLNLAIISKFNEVKNGIIRRDSLWDKLVFSKIQGSLGGKVRLMITGAAPISTPVLTFFRAAMGCWVFEAYGQTECTGGCSITSPGDWTAGHVGTPVACNFVKLEDVADMNYFSVNNEGEICIKGNNVFKGYLKDPEKTQEVLDKDGWLHTGDIGRWLPNGTLKIVDRKKNIFKLAQGEYIAPEKIENVYSRSRPVLQVFVHGESLRSFLIGVVVPDPDSLPSFAAKIGVKGSFEELCKNQCVKEAILEDLQKIGKEGGLKSFEQVKSIFVHPEPFTIENGLLTPTLKAKRVELAKFFQTQIKSLYESIEE
In the case of B2, the binding entry was “binds”.

B3: Cds2 (protein, UniProt Q99L43 1-444)
chain: MTELRQRVVREDAPPEDKESESEAKLDGETASDSESRAETAPLPTSVDDTPEVLNRALSNLSSRWKNWWVRGILTLAMIAFFFIIIYLGPMVLMMIVMCVQIKCFHEIITIGYNVYHSYDLPWFRTLSWYFLLCVNYFFYGETVTDYFFTLVQREEPLRILSKYHRFISFALYLTGFCMFVLSLVKKHYRLQFYMFGWTHVTLLIVVTQSHLVIHNLFEGMIWFIVPISCVICNDIMAYMFGFFFGRTPLIKLSPKKTWEGFIGGFFATVVFGLLLSYVMSGYRCFVCPVEYNNDTNSFTVDCEPSDLFRLQEYNIPGVIQSAIGWKTVRMYPFQIHSIALSTFASLIGPFGGFFASGFKRAFKIKDFANTIPGHGGIMDRFDCQYLMATFVNVYIASFIRGPNPSKLIQQFLTLRPDQQLHIFNTLKSHLTDKGILTSALEDE
For B3, the binding entry is “binds”.

B4: HMOX1 (endogenous) (protein, UniProt P14901 1-289)
chain: MERPQPDSMPQDLSEALKEATKEVHIQAENAEFMKNFQKGQVSREGFKLVMASLYHIYTALEEEIERNKQNPVYAPLYFPEELHRRAALEQDMAFWYGPHWQEIIPCTPATQHYVKRLHEVGRTHPELLVAHAYTRYLGDLSGGQVLKKIAQKAMALPSSGEGLAFFTFPNIDSPTKFKQLYRARMNTLEMTPEVKHRVTEEAKTAFLLNIELFEELQVMLTEEHKDQSPSQMASLRQRPASLVQDTAPAETPRGKPQISTSSSQTPLLQWVLTLSFLLATVAVGIYAM
For the molecule B4, the binding entry is reported as “binds”.

B5: Canx (protein, UniProt P35564 21-591)
chain: HDGHDDDAIDIEDDLDDVIEEVEDSKSKSDASTPPSPKVTYKAPVPTGEVYFADSFDRGSLSGWILSKAKKDDTDDEIAKYDGKWEVDEMKETKLPGDKGLVLMSRAKHHAISAKLNKPFLFDTKPLIVQYEVNFQNGIECGGAYVKLLSKTAELSLDQFHDKTPYTIMFGPDKCGEDYKLHFIFRHKNPKTGVYEEKHAKRPDADLKTYFTDKKTHLYTLILNPDNSFEILVDQSVVNSGNLLNDMTPPVNPSREIEDPEDRKPEDWDERPKIADPDAVKPDDWDEDAPSKIPDEEATKPEGWLDDEPEYIPDPDAEKPEDWDEDMDGEWEAPQIANPKCESAPGCGVWQRPMIDNPNYKGKWKPPMIDNPNYQGIWKPRKIPNPDFFEDLEPFKMTPFSAIGLELWSMTSDIFFDNFIISGDRRVVDDWANDGWGLKKAADGAAEPGVVLQMLEAAEERPWLWVVYILTVALPVFLVILFCCSGKKQSNAMEYKKTDAPQPDVKDEEGKEEEKNKRDEEEEEEKLEEKQKSDAEEDGVTGSQDEEDSKPKAEEDEILNRSPRNRKPRRE
Turning to B5, the binding result is listed as “binds”.

B6: Asph (protein, UniProt Q8BSY0 1-741)
chain: MAPRKNAKGGGGNSSSSGSGSGSGSGSPSTGSSGSSSSPGARREAKHGGHKNGRRGGISGGSFFTWFMVIALLGVWTSVAVVWFDLVDYEEVLGKLGVYDADGDGDFDVDDAKVLLGLKERSPSERTFPPEEEAETHAELEEQAPEGADIQNVEDEVKEQIQSLLQESVHTDHDLEADGLAGEPQPEVEDFLTVTDSDDRFEDLEPGTVHEEIEDTYHVEDTASQNHPNDMEEMTNEQENSDPSEAVTDAGVLLPHAEEVRHQDYDEPVYEPSEHEGVAISDNTIDDSSIISEEINVASVEEQQDTPPVKKKKPKLLNKFDKTIKAELDAAEKLRKRGKIEEAVNAFEELVRKYPQSPRARYGKAQCEDDLAEKQRSNEVLRRAIETYQEAADLPDAPTDLVKLSLKRRSERQQFLGHMRGSLLTLQRLVQLFPSDTTLKNDLGVGYLLLGDNDSAKKVYEEVLNVTPNDGFAKVHYGFILKAQNKISESIPYLKEGIESGDPGTDDGRFYFHLGDAMQRVGNKEAYKWYELGHKRGHFASVWQRSLYNVNGLKAQPWWTPRETGYTELVKSLERNWKLIRDEGLMVMDKAKGLFLPEDENLREKGDWSQFTLWQQGRKNENACKGAPKTCALLEKFSETTGCRRGQIKYSIMHPGTHVWPHTGPTNCRLRMHLGLVIPKEGCKIRCANETRTWEEGKVLIFDDSFEHEVWQDASSFRLIFIVDVWHPELTPQQRRSLPAI
Consider B6, for which the binding result is given as “binds”.

B7: Ssr4 (protein, UniProt Q62186 24-172)
chain: ACLEPQITPSYYTTSDAVISTETVFIVEISLTCKNRVQNMALYADVSGKQFPVTRGQDVGRYQVSWSLEHKSAHAGTYEVRFFDEESYSLLRKAQRNNEDVSIIPPLFTVSVDHRGTWNGPWVSTEVLAAVIGIVIYYLAFSAKSHIQA
Turning to B7, the binding entry is reported as “binds”.
